Experimental data published in patent US10906896B2, “Compositions and methods for inhibiting kinases” (Inhibikase Therapeutics, Inc., priority 2015, dated 2021).

Test system: JCV laboratory strain MAD-1
Assay: JCV antiviral potency in Cos 7 cells
Format: cell-based
Details: JC polyomavirus, COS-7, 168 h; read-out: EC50 against JCV (absolute value)

Cc1ccc(NC(=O)c2ccc(CN3CCN(C)CC3)cc2)cc1Nc1nccc(-c2cccnc2)n1 [imatinib, reference compound]
EC50: 4.91 µM
